The list shows a part of the results. Further columns of the screen follow, without active or inactive calls. Most of these compounds were active or inconclusive in the main read-out, so they are no random draw. Potencies come from curve fits of mixed quality, noted in brackets.
Assay: qHTS Assay to Find Inhibitors of Chronic Active B-Cell Receptor Signaling
Conditions: ABC-DLBCL IkBa-CBG/CBR reporter, luminescence ratio (green luciferase fused to IkBa over red control in TMD8 lymphoma cells), 4 h
How it was run: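 TMD8 human ABC-DLBCL cells with doxycycline-inducible IκBα–green luciferase fusion and unfused red luciferase, in 0.5% FBS medium; compounds up to 46 uM, 4 h at 37C. Green/red luminescence ratio, filter-overlap corrected, fitted to concentration-response curves.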

[1] = measured here: CBR red luminescence, cell number

| Structure (SMILES) | AC50 [1] | AC50 (measured here: IkBa-CBG green luminescence) |
| --- | --- | --- |
| CCOC(=O)c1cc(-c2ccc(C)cc2)n(CCCC(=O)Nc2cc(C)ccc2C)c1 | 1.26 µM [rising, partial curve, poor fit] |  |
| CCOc1ccccc1NC1=C(Cl)C(=O)N(c2ccc(OC)cc2)C1=O | 23.1 µM [falling, single point] |  |
| c1cnc2ccc(C(c3nnnn3C3CCCC3)N3CCN4CCCC4C3)cc2c1 (centres undefined) | 0.2 µM [rising, full curve, poor fit] |  |
| Fc1ccc(NC(=S)N/N=C/c2cccc(Br)c2)c(F)c1 | 0.164 µM [falling, full curve, poor fit] |  |
| Cc1ccc(-n2nnc(-c3nccn3C)n2)cc1 | 8.91 µM [falling, partial curve] |  |
| COc1ccc(OCc2nn3c(-c4ccco4)nnc3s2)cc1 | 25.1 µM [falling, partial curve, poor fit] |  |
| O=C(CCN1CCCC1)c1cccs1 | 35.5 µM [rising, single point] |  |
| C=CCn1c(SCC(=O)c2cc(C)n(C(C)COC)c2C)nc2sc(C)c(C)c2c1=O (centres undefined) | 16.4 µM [falling, single point] |  |
| Cc1ccc(-c2ccccc2)n1-c1cccc(C(=O)O)c1 | 35.5 µM [falling, single point] |  |
| N#Cc1cc2c(nc1SCC(=O)O)CCCC2 | 1.64 µM [falling, full curve] |  |
| Cc1ccc(C(=O)Nc2ccc(Nc3ccccc3)cc2)c(Cl)c1 | 22.4 µM [rising, single point] |  |
| CCn1c(=O)c(C(=O)CN(C)Cc2cccc(OC)c2OC)c(N)n(Cc2ccccc2)c1=O | 5.62 µM [falling, single point] |  |
| COc1ccc(C2/C(=C(/O)c3ccccc3)C(=O)C(=O)N2CCCN2CCOCC2)cc1 (centres undefined) | 11.2 µM [rising, partial curve] |  |
| O=C(Cn1nc2ccccc2n1)N/N=C/c1cc([N+](=O)[O-])ccc1O | 3.55 µM [falling, full curve, poor fit] |  |
| COC(=O)c1c(-c2ccc3ccccc3c2)csc1NC(=O)Cc1ccc(OC)c(OC)c1 | 5.01 µM [falling, full curve] |  |
| Cc1nc(C(=O)NNC(=O)c2cccc(Cl)c2)c(C(F)(F)F)o1 | 35.5 µM [falling, single point] |  |
| C/C(=N\NC(=O)c1ccc(C)cc1)c1c(C)[nH]n(-c2ccccc2)c1=O | 6.31 µM [falling, full curve] |  |
| Cc1nc(SCC(=O)Nc2ccccc2C(F)(F)F)c(C#N)c(C)c1CC(=O)c1ccc(Br)cc1 | 2.31 µM [falling, single point] | 4.11 µM [rising, partial curve, poor fit] |

Ordered by molecular weight (low to high): part of the list above.

| Structure (SMILES) | AC50 [1] | AC50 (measured here: IkBa-CBG green luminescence) |
| --- | --- | --- |
| Cc1ccc(-c2ccccc2)n1-c1cccc(C(=O)O)c1 | 35.5 µM [falling, single point] |  |
| COc1ccc(OCc2nn3c(-c4ccco4)nnc3s2)cc1 | 25.1 µM [falling, partial curve, poor fit] |  |
| COC(=O)c1c(-c2ccc3ccccc3c2)csc1NC(=O)Cc1ccc(OC)c(OC)c1 | 5.01 µM [falling, full curve] |  |

— PubChem BioAssay AID493014 (National Center for Advancing Translational Sciences (NCATS), 2011)
